Assay results reported in patent publication US7018812.
Results are given in words; binding and its absence hold for the method and conditions named. Some binding calls cover weakened binding; strength is not graded here.

Sequences of proteins named here, by UniProt entry; tags and fusion partners are left off. A change or cut given only in a name is not applied to a line headed by its entry.
UniProt P18901: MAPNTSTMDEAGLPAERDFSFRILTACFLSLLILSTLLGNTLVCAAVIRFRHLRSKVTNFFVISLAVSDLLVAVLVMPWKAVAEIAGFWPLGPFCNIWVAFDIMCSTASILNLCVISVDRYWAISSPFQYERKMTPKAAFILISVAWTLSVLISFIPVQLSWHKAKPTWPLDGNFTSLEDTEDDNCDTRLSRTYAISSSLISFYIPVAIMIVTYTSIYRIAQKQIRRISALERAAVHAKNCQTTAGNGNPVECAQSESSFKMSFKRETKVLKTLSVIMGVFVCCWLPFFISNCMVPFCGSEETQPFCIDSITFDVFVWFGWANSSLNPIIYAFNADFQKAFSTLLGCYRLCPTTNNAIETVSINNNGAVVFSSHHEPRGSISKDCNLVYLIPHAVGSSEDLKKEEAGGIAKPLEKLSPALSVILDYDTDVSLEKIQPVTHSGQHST
UniProt P21453: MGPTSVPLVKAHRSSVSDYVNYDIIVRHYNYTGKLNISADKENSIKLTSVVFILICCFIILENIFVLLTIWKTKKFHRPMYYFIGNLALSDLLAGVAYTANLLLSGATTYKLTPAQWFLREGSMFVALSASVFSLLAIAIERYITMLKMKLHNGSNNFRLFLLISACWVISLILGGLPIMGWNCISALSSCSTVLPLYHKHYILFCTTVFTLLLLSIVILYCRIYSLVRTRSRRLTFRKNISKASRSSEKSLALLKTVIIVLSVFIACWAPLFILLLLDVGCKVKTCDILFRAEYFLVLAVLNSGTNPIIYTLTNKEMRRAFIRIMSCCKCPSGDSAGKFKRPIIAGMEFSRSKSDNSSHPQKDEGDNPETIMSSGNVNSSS
UniProt P13945: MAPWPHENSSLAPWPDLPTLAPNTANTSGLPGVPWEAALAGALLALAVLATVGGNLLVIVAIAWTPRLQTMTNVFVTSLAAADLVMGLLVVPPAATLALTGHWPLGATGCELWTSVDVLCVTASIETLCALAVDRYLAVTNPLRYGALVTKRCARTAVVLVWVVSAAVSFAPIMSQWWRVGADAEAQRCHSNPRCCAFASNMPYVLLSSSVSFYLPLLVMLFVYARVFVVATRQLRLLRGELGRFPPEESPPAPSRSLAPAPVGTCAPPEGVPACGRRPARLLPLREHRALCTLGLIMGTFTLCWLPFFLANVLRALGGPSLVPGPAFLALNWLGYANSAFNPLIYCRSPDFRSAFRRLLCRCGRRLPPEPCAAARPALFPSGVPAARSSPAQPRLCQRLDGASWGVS
UniProt P29067: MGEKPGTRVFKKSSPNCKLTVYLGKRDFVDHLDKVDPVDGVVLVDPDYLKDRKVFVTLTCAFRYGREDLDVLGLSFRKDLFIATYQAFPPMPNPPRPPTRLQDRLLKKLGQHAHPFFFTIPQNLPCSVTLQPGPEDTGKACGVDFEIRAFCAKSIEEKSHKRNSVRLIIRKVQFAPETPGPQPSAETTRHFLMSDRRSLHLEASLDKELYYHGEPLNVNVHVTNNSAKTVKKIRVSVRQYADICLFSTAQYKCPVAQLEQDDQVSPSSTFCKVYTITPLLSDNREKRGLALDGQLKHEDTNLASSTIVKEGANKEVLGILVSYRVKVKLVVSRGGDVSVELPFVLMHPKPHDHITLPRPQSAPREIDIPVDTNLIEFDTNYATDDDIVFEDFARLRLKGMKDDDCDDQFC

Experiments:
[1] = target: D1AR-V2R chimera expressed from the pEArrB-1/D1AR vector (Rattus norvegicus (Rat)) (UniProt P18901); experiment: confocal microscopy of βarrestin2-GFP in HEK-293 cells; dopamine
[2] = target: Edg1R-V2R chimera expressed from the pEArrB-1/Edg1R vector (Homo sapiens (Human)) (UniProt P21453); experiment: confocal microscopy of βarrestin2-GFP in HEK-293 cells; sphingosine-1-phosphate
[3] = target: β3AR-V2R chimera expressed from the pEArrB-1/β3AR vector (Homo sapiens (Human)) (UniProt P13945); experiment: confocal microscopy of βarrestin2-GFP in HEK-293 cells; isoproterenol
[4] = target: 5HT1AR-V2R chimera expressed from the pEArrB-1/5HT1AR vector (Homo sapiens (Human)) (UniProt P08908); experiment: confocal microscopy of βarrestin2-GFP in HEK-293 cells; serotonin

binding [1]: binds | binding [2]: binds | binding [3]: binds | binding [4]: binds
Substance: βarr2-GFP (conjugate of β-arrestin 2 and Green Fluorescent Protein) (from UniProt P29067 1-410; P42212 1-238)
